# Results taken from US20100333217A1, “SCREENING METHOD FOR THE COMPOSITION FOR PREVENTION OR TREATMENT OF OSTEOPOROSIS AND METABOLIC BONE DISEASE USING TALLYHO/JNGJ MOUSE” (KOREA RESERACH INSTITUTE OF CHEMICAL TECHNOLOGY, priority 2007, published 2010).
# Test system: male TH mice
# Assay: Micro-CT bone mineral density, bone mineral content and skull thickness in drug-treated male TH mice
# Type: in vivo, mouse
# Settings: 4-week-old male TH mice, oral 5 mg/kg once a day for 4 weeks
# Protocol: Control mice (C57BL/6) and TH mice were freely fed, and their bone mineral densities were measured every week from 4 week age to 20 week age after delectation. The mice were anesthetized with Avertin (2,2,2-tribromoethanol) to keep them alive while measuring their bone mineral densities. […] Thereafter, the resulting images were reformed using Microview (GE Healthcare, USA) to obtain the final bone mineral density (BMD) and the final bone mineral content (BMC) (see FIG. 2).
# Control mice (C57BL/6) and TH mice were fed freely. […] Thereafter, the bone thicknesses and the bone mineral densities of the extracted skulls were measured as described in Example 2, using a tomographic apparatus (micro-CT) for animals.
# 8-week-old male TH mice were orally administered with parathyroid hormone (hPTH(1-34), Sigma, USA), which is started to be used as an osteoporosis medicine increasing the bone mineral content, with a concentration of 50 μg/kg, once a day for 4 weeks.
structure (smiles),measurement,setting,value
NCCCC(O)(P(=O)(O)O)P(=O)(O)O [alendronate],bone mineral densities in the femurs,vs 8-week-old TH mice treated with vehicle only (FIG. 15),significantly recovered
same,bone mineral densities of the skulls,vs TH mice vehicle (FIG. 18),significantly recovered
